No constants are given. Whether binding was seen depends on the method and setting. Binding seen in cells or lysates may run through a third protein. Some results given as binding are weak or reduced against the parent protein; the word gives no strength.
Molecular target: urokinase-type plasminogen activator receptor (PLAUR), endogenous in neutrophils (UniProt Q03405)
Assay: co-IP; coimmunoprecipitation in neutrophils; which protein was precipitated is not told in the main text

Amino acid sequences for entries named in this document (tags omitted). Residues count along the entry.
UniProt Q03405, residues 23-305: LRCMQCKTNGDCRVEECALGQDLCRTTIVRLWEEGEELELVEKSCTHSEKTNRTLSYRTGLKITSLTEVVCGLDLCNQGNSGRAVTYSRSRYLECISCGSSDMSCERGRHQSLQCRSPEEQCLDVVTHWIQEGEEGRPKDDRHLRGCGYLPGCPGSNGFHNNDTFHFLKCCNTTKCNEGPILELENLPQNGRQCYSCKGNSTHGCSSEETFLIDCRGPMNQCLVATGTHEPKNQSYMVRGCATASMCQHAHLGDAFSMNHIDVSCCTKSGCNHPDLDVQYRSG
UniProt P35579: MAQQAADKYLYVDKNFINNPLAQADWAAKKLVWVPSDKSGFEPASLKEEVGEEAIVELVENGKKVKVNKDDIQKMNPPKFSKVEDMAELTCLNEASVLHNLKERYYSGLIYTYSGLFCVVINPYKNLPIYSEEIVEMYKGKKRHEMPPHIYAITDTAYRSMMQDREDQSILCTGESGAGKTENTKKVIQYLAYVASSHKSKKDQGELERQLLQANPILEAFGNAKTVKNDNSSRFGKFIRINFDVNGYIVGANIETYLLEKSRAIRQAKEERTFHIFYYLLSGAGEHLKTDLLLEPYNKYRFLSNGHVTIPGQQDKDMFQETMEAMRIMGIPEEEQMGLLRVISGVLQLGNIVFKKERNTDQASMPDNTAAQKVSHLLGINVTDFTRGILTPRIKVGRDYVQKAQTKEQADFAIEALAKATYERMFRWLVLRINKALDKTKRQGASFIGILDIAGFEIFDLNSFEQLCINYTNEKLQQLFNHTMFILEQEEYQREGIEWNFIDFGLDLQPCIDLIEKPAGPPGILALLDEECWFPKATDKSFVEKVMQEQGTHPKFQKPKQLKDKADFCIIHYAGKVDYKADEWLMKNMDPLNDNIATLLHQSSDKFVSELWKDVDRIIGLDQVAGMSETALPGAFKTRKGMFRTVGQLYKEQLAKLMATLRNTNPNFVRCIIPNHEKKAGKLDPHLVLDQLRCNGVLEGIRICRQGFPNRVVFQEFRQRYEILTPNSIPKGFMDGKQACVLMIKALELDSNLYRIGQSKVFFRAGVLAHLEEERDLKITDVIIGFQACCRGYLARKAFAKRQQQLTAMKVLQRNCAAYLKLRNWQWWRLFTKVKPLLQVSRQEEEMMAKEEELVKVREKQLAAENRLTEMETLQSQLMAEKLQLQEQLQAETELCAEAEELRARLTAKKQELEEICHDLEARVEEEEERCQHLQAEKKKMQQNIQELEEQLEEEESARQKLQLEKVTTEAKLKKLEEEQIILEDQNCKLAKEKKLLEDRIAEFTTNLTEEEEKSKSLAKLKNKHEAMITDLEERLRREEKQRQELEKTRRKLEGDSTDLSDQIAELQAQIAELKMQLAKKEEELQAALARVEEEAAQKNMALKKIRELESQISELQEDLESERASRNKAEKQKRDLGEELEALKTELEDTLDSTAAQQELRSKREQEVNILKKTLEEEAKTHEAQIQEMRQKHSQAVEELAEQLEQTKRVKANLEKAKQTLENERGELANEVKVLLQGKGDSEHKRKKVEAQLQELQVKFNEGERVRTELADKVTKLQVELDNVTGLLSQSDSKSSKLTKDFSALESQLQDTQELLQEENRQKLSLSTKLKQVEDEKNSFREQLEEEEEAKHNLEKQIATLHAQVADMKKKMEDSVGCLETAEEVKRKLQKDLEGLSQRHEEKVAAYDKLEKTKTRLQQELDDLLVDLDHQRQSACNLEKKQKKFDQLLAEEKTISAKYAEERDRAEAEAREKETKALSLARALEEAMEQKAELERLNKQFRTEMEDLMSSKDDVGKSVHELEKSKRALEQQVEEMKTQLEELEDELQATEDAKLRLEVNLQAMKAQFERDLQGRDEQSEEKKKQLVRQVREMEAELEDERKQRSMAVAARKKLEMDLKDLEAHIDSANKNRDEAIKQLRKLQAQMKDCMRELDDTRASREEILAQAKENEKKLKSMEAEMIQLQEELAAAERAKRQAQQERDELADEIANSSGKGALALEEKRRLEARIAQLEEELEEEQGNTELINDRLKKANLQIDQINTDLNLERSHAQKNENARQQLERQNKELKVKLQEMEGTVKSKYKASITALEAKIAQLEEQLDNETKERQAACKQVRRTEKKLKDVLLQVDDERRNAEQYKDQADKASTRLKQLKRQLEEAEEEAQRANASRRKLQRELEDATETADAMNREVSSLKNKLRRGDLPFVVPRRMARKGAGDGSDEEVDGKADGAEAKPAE

myosin heavy chain 9 (MYH9) (from UniProt P35579 1-1960)
binding: binds

Source: publication PMC12520528
